## Screening data, single-dose tests

The values are deposited in ChEMBL (CHEMBL3988442, “University of Dundee, Small-Polar-MMV Screening Library” (2021)).

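Phenotypic screen: M. tuberculosis growth, glucose 7H9 medium, 3 days; the read-out is not stated. Tested at 50 µM. Higher reads as more growth inhibition (inferred: compounds with an IC50 in retests scored well above the rest). Of about 69,000 compounds tested this way, about 760 (1.1%) reached 50% or more in at least one test.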

Results are given as percent effect. How 0% and 100% were set is not recorded. Most values in the screen are low, and negative values occur. The compounds are a random part of those screened. Two or more numbers in one place are separate tests of the same structure; such repeats can differ widely.

COc1ccc(C2=CCN(C(=O)C3CCCN(C(N)=O)C3)CC2)cc1 (stereo unspecified) read 11.64%.
COC(=O)C1CCN(C(=O)Nc2cc(-n3cccc3)ccc2F)CC1 read 23.24%.
O=C(c1cnc(-c2cccs2)s1)N1CCCC(n2cccn2)C1 (stereo unspecified) read 47.92%.
O=C(O)C(F)(F)F.O=C(O)C(F)(F)F.O=C(c1cscn1)N1CCC2(CN(Cc3ccncc3)C2)C1 read -1.587%.
[H][C@@]12CCN(S(=O)(=O)c3cccnc3)C[C@]1(c1nnc(C)o1)CCO2 read 3.753%.
CCN(CC1CN(Cc2cccc(C#N)c2)CCO1)c1cccnn1 (stereo unspecified) read 26.66%.
O=C(c1ccc(SC(F)(F)F)cc1)N1CCOCC1c1ncon1 (stereo unspecified) read 14.31%.
Cc1cnn(CCNCc2nnc(C3CC3)o2)c1 read -10.25%.
CCc1nc(C)c(C(=O)NCC2COc3cc(OC)ccc3C2)o1 (stereo unspecified) read 25.33%.
O=C(NCC1(N2CCOCC2)CCSC1)Nc1ccncc1 (stereo unspecified) read 4.629% and -3.157%.
CC(C)[C@H](NC(=O)N1CCN(c2ccc(Cl)cc2)CC1)C(=O)NC1CC1 read -22.73%.
O=C1NCCCCC1Sc1ccccc1F (stereo unspecified) read -29.63%.
CN1CCN(C(=O)c2cnsn2)c2cc(F)ccc21 read 1.599%.
O=S(=O)(c1ccc(Cl)s1)N1CCN(Cc2nc(-c3ccco3)cs2)CC1 read 25.36%.
CC(C)Cc1nc(CN2CCC3(CCCO3)CCC2=O)no1 (stereo unspecified) read -12.36%.
C/C(=C/c1ccccc1)CNCc1cccc(C(N)=O)c1 read 3.902% and 4.56%.
O=C(O)C(F)(F)F.O=C(O)C(F)(F)F.O=C(O)C(F)(F)F.[H][C@@]12CCN(Cc3ccccn3)C[C@]1([H])[C@@H](CN(C)Cc1ccco1)OC2 read 18.46% and 1.665%.
[H][C@]12CCN(c3nc(CO)cs3)C[C@]1(COC)CC[C@@H](N1CCOCC1)C2 read -6.048%.
COc1ccc(OC)c(C(C)NC(=O)c2nn(C)c(C)c2Br)c1 (stereo unspecified) read -1.51% and -10.78%.
COc1c(CNC2CCC(O)CC2)c(C(C)C)nn1C (stereo unspecified) read -17.85%.
Cc1ccc(-c2cc(CNC(=O)N3CCCN(C)CC3)on2)cc1 read -46.97% and 2.068%.
O=C(O)C(F)(F)F.O=C(O)C(F)(F)F.[H][C@@]12CCN(c3ccncn3)C[C@@]1([H])O[C@@H](C(=O)NCc1cccnc1)C2 read -5.186%.
CNC(=O)Cn1cc(C#N)c(=O)c2cc(Br)ccc21 read -13.92%.
CN(C)c1cc2c(nn1)CCN(C(=O)c1cc3c(s1)CCCC3)C2 read 32.6%.
Cc1cc(C)n(C2CCCN(C(=O)CCNS(C)(=O)=O)C2)n1 (stereo unspecified) read -23.99%.
Cn1ncc2c(=O)[nH]c(CN3CCC(Cc4ccccc4)CC3)nc21 read 11.15%.
CCN1CCN(C2CCN(C(C(N)=O)c3ccccc3)CC2)C1=O (stereo unspecified) read 7.935% and -2.612%.
CCN(C(=O)c1ccc2c(c1)OCO2)C1CC(=O)NC1=O (stereo unspecified) read -43.68%.
Cc1ccc(C)c(OCc2cc(C(=O)N(C)CC(O)CO)no2)c1 (stereo unspecified) read -12.37%.
Cl.Cl.c1cnc(NCc2cncc3c2CCN(Cc2cccs2)C3)nc1 read -3.872%.
CS(=O)(=O)N1CCOC2(CCCC2)C1 read -4.46%.
CC(C)N(CCO)C(=O)C1CCC(=O)N(Cc2ccc(Cl)cc2)C1 (stereo unspecified) read 21.7%.
Cc1nc(N)nc(N2CCOc3ccc(CO)cc3C2)c1C read 5.613% and 23.45%.
O=C(NCCN1CCCCC1CO)c1cc(-c2ccccc2)on1 (stereo unspecified) read -0.791% and 7.877%.
Cc1cccc(-n2cc(C(=O)N3CCn4c(C)nnc4C3)nn2)c1 read -30.74%.
CC(C)c1nc(CN(C)C2CCN(Cc3nnc(C4CC4)o3)C2)no1 (stereo unspecified) read -22.99%.
CS(=O)(=O)NCCC(=O)N1CCCC1c1noc(C2CC2)n1 (stereo unspecified) read 15.03%.
c1ccc(CN2CCC(Nc3ncnc4c3CCNCC4)C2)cc1 (stereo unspecified) read -5.539%.
COCc1noc(CN2C[C@H](C3CC3)[C@@H](N(C)C)C2)n1 read 1.966% and -6.483%.
Cn1ccc(NC(=O)Cc2cccc(F)c2)n1 read 4.008%.
COC(=O)c1ccc(CNC(=O)Nc2ccc(=O)n(C)c2)cc1 read -5.662%.
CN(C)C(=O)c1nc2c(s1)CCN(C(=O)c1ccc(Cl)cc1)CC2 read 19.17%.
O=C(NCC1(CO)CC1)c1nnn(-c2ccc(F)cc2)c1C1CC1 read -4.648% and -15.47%.
CC1CCN(C(=O)CN(Cc2ccco2)C2CC2)CC1 read 2.561%.
COCCN1CCCn2cnc(CNC(=O)N(C)C)c2C1.O=C(O)C(F)(F)F.O=C(O)C(F)(F)F read -18.46% and -9.909%.
Cc1cc(CN(C)C(=O)c2ccc(C(F)(F)F)nc2)no1 read -4.387%.
CN(C)CC1COCCN1C(=O)C1(c2cccs2)CCCC1.O=CO (stereo unspecified) read 25.05%.
Cc1ccc(CN(C)C(=O)CN2CCCC(Cn3cncn3)C2)cc1 (stereo unspecified) read -13.63%.
CC(C)N1CCCN(c2nc(-c3cccnc3)nc3c2cnn3C)CC1 read -55.63%.
CCS(=O)(=O)N1C[C@@H](c2ccccc2)[C@@]2(CCNC2=O)C1 read -30%.
Cc1nc(NC2CCCC2)cc(C2CCN2C(=O)c2cccnc2)n1 (stereo unspecified) read 19.71%.
CNC(=O)c1cc(-c2ccccc2OC)[nH]n1 read 12.3%.
COCCN(C(=O)c1c[nH]c2ncccc12)C1CCCC1 read 28.3%.
Cc1cn[nH]c1C1COCCN1C(=O)c1ccc2[nH]nnc2c1 (stereo unspecified) read -0.6267%.
COC(C)(C)CC(C)NCc1cn2ccccc2n1 (stereo unspecified) read -7.941%.

4 of the entries, repeated:

| SMILES | Percent Effect |
|---|---|
| `[H][C@]12CCN(c3nc(CO)cs3)C[C@]1(COC)CC[C@@H](N1CCOCC1)C2` | -6.048% |
| `CC(C)[C@H](NC(=O)N1CCN(c2ccc(Cl)cc2)CC1)C(=O)NC1CC1` | -22.73% |
| `Cc1ccc(CN(C)C(=O)CN2CCCC(Cn3cncn3)C2)cc1` (stereo unspecified) | -13.63% |
| `CCN(C(=O)c1ccc2c(c1)OCO2)C1CC(=O)NC1=O` (stereo unspecified) | -43.68% |